The supplement of paper PMC10849652
This is one part of the list.

Protein sequences, listed by entry. Tags and fused reporters are not part of them. Lines headed by an entry give the natural chain unless they say otherwise; changes in a name come on top.
UniProt Q969V3: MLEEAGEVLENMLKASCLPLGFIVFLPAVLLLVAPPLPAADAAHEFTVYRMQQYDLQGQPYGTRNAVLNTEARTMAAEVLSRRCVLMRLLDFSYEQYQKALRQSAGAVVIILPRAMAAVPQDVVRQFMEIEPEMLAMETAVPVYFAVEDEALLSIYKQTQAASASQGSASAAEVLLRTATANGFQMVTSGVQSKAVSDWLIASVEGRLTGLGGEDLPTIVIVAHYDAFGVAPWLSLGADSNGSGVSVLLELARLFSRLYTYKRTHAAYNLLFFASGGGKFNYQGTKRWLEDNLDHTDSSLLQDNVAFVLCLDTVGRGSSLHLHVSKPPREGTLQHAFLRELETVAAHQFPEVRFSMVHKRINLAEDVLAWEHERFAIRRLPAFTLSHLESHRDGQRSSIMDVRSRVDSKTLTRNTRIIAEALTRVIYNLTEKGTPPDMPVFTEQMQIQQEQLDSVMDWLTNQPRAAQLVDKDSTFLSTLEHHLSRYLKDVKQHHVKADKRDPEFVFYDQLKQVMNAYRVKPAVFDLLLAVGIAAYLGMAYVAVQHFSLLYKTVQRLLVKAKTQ
UniProt P28331, whole entry, looked up: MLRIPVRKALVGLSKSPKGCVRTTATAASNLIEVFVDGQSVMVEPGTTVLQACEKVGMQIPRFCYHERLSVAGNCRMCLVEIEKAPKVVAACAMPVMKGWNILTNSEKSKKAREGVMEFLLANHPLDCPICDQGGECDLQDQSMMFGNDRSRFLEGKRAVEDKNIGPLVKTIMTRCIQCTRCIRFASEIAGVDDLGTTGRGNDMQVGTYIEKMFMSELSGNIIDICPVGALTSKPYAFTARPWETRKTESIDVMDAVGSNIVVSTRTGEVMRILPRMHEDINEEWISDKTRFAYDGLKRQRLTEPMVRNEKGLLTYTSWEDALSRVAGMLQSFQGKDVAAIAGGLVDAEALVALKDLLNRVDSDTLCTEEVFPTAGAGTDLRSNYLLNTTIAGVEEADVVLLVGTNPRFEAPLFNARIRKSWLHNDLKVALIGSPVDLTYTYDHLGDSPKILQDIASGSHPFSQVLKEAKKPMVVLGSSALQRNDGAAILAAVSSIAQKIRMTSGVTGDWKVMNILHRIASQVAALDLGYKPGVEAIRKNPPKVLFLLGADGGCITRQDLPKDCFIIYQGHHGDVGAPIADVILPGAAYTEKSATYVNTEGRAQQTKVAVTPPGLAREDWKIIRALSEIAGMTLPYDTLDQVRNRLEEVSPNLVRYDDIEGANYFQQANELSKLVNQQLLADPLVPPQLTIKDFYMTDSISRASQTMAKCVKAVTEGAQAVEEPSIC
UniProt O95139, whole entry, looked up: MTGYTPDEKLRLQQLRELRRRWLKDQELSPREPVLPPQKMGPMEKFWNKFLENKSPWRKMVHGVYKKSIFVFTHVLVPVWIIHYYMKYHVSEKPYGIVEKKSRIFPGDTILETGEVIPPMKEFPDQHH
UniProt Q8NHV4, whole entry, looked up: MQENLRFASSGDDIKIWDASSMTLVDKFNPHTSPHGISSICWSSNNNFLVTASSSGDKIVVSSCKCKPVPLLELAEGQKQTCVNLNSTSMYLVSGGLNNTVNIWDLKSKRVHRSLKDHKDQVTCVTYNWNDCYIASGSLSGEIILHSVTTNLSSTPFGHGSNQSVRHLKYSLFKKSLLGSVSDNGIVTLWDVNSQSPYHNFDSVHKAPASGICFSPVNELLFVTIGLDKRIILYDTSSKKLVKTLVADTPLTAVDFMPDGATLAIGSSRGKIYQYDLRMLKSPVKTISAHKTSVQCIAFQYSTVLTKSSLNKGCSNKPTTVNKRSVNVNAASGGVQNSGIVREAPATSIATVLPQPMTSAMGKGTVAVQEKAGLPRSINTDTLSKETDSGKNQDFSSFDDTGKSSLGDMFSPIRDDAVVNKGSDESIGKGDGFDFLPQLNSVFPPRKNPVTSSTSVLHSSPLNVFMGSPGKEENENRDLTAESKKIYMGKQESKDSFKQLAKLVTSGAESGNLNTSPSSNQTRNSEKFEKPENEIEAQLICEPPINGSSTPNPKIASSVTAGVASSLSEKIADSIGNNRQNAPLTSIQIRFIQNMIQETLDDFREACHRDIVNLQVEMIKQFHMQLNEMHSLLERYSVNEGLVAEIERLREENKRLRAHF
UniProt P54802: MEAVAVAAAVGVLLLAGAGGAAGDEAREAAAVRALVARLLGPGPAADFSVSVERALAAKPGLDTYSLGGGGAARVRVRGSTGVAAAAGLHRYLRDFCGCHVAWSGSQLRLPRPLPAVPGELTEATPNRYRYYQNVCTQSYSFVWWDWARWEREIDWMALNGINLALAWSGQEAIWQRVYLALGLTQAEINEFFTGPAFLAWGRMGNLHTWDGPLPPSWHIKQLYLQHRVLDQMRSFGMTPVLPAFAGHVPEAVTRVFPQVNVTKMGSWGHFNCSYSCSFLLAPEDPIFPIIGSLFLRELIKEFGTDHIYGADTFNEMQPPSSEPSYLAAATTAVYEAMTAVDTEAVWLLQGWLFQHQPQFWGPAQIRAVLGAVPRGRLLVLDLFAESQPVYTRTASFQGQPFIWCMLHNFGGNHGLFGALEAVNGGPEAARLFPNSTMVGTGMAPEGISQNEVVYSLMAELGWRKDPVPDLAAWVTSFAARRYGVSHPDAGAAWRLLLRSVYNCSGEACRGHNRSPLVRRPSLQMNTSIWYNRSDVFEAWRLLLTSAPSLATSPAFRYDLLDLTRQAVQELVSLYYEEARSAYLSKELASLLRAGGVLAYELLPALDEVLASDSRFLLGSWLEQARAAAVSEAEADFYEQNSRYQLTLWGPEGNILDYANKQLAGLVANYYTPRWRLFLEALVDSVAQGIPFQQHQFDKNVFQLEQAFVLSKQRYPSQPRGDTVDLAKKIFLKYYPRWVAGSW
UniProt Q96NT1: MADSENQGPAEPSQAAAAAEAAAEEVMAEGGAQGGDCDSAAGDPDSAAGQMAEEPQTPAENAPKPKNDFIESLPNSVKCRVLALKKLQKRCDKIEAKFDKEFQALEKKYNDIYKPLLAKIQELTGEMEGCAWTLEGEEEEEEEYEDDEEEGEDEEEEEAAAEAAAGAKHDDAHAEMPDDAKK
UniProt Q9P032: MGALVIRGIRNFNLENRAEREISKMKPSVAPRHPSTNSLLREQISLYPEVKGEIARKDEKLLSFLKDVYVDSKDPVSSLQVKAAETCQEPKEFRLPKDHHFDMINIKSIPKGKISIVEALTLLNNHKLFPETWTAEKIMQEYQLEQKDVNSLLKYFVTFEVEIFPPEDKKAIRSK
UniProt Q9UHQ1: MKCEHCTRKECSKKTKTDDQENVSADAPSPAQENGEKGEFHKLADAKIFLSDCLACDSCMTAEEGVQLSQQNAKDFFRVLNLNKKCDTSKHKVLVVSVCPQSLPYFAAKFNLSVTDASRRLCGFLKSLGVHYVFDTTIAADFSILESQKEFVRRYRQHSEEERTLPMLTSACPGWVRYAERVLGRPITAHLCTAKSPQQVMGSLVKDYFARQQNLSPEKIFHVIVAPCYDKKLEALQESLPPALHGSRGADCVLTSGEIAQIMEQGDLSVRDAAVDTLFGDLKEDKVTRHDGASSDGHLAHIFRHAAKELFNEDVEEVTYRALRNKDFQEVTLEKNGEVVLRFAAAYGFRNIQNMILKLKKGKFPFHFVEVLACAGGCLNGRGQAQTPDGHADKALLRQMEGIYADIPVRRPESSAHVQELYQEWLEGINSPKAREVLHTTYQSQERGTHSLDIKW
UniProt P17050: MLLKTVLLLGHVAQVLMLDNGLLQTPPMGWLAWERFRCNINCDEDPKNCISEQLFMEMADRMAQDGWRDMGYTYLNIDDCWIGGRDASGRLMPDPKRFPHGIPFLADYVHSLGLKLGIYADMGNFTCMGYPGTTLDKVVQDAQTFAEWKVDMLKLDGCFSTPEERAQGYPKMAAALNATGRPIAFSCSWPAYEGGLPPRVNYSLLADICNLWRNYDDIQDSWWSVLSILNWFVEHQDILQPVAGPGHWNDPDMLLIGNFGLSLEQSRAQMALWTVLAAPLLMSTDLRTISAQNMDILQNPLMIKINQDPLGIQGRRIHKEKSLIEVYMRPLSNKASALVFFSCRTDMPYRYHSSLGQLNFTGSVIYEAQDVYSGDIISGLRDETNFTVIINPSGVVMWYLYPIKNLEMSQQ
UniProt P54920: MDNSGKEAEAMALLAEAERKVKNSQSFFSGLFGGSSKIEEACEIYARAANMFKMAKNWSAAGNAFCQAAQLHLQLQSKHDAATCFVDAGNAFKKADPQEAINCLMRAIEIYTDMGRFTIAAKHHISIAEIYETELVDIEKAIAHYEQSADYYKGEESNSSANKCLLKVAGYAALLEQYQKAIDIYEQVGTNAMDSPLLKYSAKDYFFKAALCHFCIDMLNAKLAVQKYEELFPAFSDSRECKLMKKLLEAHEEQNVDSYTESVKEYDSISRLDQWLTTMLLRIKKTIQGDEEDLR
UniProt O43678, whole entry, looked up: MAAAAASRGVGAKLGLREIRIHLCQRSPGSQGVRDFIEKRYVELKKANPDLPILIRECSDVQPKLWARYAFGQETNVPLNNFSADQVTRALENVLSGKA
UniProt Q68D85: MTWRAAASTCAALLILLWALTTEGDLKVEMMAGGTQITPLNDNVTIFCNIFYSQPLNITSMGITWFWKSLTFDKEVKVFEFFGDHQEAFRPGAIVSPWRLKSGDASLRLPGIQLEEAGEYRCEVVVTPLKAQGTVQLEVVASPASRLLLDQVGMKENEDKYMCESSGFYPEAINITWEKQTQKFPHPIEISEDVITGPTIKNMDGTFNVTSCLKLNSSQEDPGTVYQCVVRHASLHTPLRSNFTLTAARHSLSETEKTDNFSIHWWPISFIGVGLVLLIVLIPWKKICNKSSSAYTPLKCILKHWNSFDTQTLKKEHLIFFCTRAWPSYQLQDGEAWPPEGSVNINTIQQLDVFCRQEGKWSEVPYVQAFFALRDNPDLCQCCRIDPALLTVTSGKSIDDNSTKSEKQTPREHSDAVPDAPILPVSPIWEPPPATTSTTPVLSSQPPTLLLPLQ
UniProt O76041: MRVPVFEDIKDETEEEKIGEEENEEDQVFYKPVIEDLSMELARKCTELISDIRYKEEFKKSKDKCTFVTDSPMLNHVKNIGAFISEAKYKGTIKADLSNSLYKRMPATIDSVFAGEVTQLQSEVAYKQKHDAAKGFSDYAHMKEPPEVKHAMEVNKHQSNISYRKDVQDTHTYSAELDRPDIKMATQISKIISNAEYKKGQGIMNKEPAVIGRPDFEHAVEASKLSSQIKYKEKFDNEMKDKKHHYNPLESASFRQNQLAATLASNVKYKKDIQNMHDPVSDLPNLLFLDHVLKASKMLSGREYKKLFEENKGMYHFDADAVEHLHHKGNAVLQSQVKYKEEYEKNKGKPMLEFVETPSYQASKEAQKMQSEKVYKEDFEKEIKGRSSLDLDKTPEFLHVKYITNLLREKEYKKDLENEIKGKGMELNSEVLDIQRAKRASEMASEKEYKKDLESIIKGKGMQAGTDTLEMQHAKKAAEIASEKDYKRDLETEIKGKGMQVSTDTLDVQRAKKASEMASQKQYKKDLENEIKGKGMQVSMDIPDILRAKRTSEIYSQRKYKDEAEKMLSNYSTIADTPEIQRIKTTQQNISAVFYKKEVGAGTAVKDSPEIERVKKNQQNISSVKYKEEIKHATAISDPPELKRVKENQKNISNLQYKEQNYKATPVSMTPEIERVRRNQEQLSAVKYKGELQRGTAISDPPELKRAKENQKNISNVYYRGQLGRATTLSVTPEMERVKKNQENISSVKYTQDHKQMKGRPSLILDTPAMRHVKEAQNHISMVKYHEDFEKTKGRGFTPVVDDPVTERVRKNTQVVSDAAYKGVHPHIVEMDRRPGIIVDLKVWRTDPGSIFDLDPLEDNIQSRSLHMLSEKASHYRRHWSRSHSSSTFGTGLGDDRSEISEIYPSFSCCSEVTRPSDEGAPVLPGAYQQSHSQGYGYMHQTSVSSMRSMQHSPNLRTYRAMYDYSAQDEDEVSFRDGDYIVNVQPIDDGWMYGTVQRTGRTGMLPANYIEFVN
UniProt P56181: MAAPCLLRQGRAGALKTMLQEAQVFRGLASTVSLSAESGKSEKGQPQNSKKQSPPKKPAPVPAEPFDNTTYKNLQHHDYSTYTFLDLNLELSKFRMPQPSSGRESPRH
UniProt Q9Y375: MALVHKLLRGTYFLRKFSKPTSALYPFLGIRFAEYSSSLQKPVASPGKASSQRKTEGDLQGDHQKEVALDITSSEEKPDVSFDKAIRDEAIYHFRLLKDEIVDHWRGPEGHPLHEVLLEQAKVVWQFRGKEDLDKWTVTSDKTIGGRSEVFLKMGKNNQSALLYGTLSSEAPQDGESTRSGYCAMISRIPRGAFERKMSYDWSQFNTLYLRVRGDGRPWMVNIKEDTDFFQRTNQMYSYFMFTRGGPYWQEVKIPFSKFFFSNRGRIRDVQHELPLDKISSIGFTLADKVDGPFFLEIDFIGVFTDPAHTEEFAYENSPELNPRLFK

Experiments:
Assay in all cases: log2 fold change, soluble protein after heating vs DMSO (PISA); higher = thermal stabilisation; K562 cells, 10 uM, 30 min; active = over 0.2 and 3.5 SD of the protein, either way, in both replicates (recomputed)
[1] = compound: CC[C@@H]1C(=O)N(C)c2cnc(Nc3ccc(C(=O)NC4CCN(C)CC4)cc3OC)nc2N1C1CCCC1
Procedure, shortened: (§1)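 K562 cells at 2×10^6 cells/mL were exposed to 10 μM compound for 30 min, then aliquots were heated for 3 min across 48°C-58°C, pooled, and extracted in PBS containing 0.5% NP-40 at 4°C. The supernatant after 21,000xg for 90 min was taken as soluble protein and measured by TMTpro 16plex LC-MS/MS with channel sums equalised. Thermal stability is reported relative to control samples, with values from duplicates. Fold changes are given on a log2 scale.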

volasertib = compound: CC[C@@H]1C(=O)N(C)c2cnc(Nc3ccc(C(=O)N[C@H]4CC[C@H](N5CCN(CC6CC6)CC5)CC4)cc3OC)nc2N1C(C)C [volasertib]
Procedure, shortened: as §1

[2] = compound: CC[C@H](C)N1C=C(C2=C(C=C(C=C21)C3=CN=C(C=C3)N4CCNCC4)C(=O)NCC5=C(C=C(NC5=O)C)C)C
Procedure, shortened: as §1

epoxomicin = compound: CC[C@H](C)[C@@H](C(=O)N[C@@H]([C@@H](C)O)C(=O)N[C@@H](CC(C)C)C(=O)[C@]1(CO1)C)NC(=O)[C@H]([C@@H](C)CC)N(C)C(=O)C [epoxomicin]
Procedure, shortened: as §1

[3] = compound: CCn1c(C(=O)N(C2CC2)C2CC2)cc2c3c(ncn3C)c(Nc3cc(C)n(C)n3)nc21
Procedure, shortened: as §1

[4] = compound: CCn1cc(-c2ccnc3[nH]c(-c4cccc(CN(C)C)c4)cc23)c(-c2ccc(NC(=O)N(C)C)cc2)n1
Procedure, shortened: as §1

[5] = compound: CN(C)CC(=O)Nc1ccc2[nH]c(=O)c3ccccc3c2c1
Procedure, shortened: as §1

rosiglitazone = compound: CN(CCOC1=CC=C(C=C1)C[C@H]2C(=O)NC(=O)S2)C3=CC=CC=N3 (racemic) [rosiglitazone]
Procedure, shortened: as §1

[6] = compound: CN1C2=C(C3=C1C(=O)N(N=C3)CC4=CC(=CC=C4)N)SC(=C2)S(=O)C
Procedure, shortened: as §1

[7] = compound: CN1CCC(CNc2ccc3ncc(-c4cccc(OC(F)(F)F)c4)n3n2)CC1
Procedure, shortened: as §1

saracatinib = compound: CN1CCN(CCOc2cc(OC3CCOCC3)c3c(Nc4c(Cl)ccc5c4OCO5)ncnc3c2)CC1 [saracatinib]
Procedure, shortened: as §1

sotrastaurin = compound: CN1CCN(c2nc(C3=C(c4c[nH]c5ccccc45)C(=O)NC3=O)c3ccccc3n2)CC1 [sotrastaurin]
Procedure, shortened: as §1

alvocidib = compound: CN1CC[C@H](c2c(O)cc(O)c3c(=O)cc(-c4ccccc4Cl)oc23)[C@H](O)C1 [alvocidib]
Procedure, shortened: as §1

Tubastatin A = compound: CN1CCc2c(c3ccccc3n2Cc2ccc(C(=O)NO)cc2)C1 [Tubastatin A]
Procedure, shortened: as §1

[8] = compound: CNC(=O)C1=CC=CC=C1NC2=NC(=NC=C2Cl)NC3=C(C=C(C=C3)N4CCOCC4)OC
Procedure, shortened: as §1

defactinib = compound: CNC(=O)c1ccc(Nc2ncc(C(F)(F)F)c(NCc3nccnc3N(C)S(C)(=O)=O)n2)cc1 [defactinib]
Procedure, shortened: as §1

rucaparib = compound: CNCc1ccc(-c2[nH]c3cc(F)cc4c3c2CCNC4=O)cc1 [rucaparib]
Procedure, shortened: as §1

[9] = compound: CNc1nc(-c2ccc3c(N)n[nH]c3c2)cc(N2C[C@@H](C(=O)NC3CCCCC3)CC[C@H]2C)n1
Procedure, shortened: as §1

encorafenib = compound: COC(=O)N[C@@H](C)CNc1nccc(-c2cn(C(C)C)nc2-c2cc(Cl)cc(NS(C)(=O)=O)c2F)n1 [encorafenib]
Procedure, shortened: as §1

[10] = compound: COC(=O)[C@H](CCSC)NC(=O)C1=C(C=C(C=C1)NC[C@H](CS)N)C2=CC=CC=C2
Procedure, shortened: as §1

Measured: log2 fold change

NCLN (UniProt Q969V3)
inactive: [1] -0.007 | volasertib -0.059 | [2] -0.003 | epoxomicin -0.004 | [3] 0.032 | [4] 0.042 | [5] -0.003 | rosiglitazone 0.001 | [6] 0.035 | [7] 0.03 | saracatinib -0.038 | sotrastaurin -0.015 | alvocidib -0.01 | Tubastatin A 0.041 | [8] -0.001 | defactinib 0.05 | rucaparib 0.043 | [9] 0.015 | encorafenib 0.038 | [10] 0.003

NDUFS1 isoform 2 (UniProt P28331)
inactive: [1] -0.029 | volasertib -0.154 | [2] 0.068 | epoxomicin 0.065 | [3] -0.019 | [4] -0.123 | [5] 0.053 | rosiglitazone 0.054 | [6] -0.056 | [7] -0.19 | saracatinib -0.01 | sotrastaurin 0.016 | alvocidib -0.103 | Tubastatin A -0.058 | [8] 0.002 | defactinib -0.035 | rucaparib 0.004 | [9] -0.002 | encorafenib 0 | [10] -0.002

NDUFB6 (UniProt O95139)
inactive: [1] -0.027 | volasertib -0.01 | [2] -0.058 | epoxomicin -0.032 | [3] 0.008 | [4] 0.01 | [5] -0.027 | rosiglitazone -0.004 | [6] -0.001 | [7] -0.06 | saracatinib -0.008 | sotrastaurin 0.025 | alvocidib 0.007 | Tubastatin A -0.016 | [8] 0.004 | defactinib 0.034 | rucaparib -0.022 | [9] -0.051 | encorafenib -0.006 | [10] 0.084

NEDD1 isoform 3 (UniProt Q8NHV4)
inactive: [1] 0.045 | volasertib 0.085 | [2] -0.012 | epoxomicin -0.019 | [3] -0.096 | [4] -0.001 | [5] -0.015 | rosiglitazone 0.053 | [6] 0.011 | [7] -0.013 | saracatinib 0.024 | sotrastaurin -0.022 | alvocidib -0.034 | Tubastatin A -0.034 | [8] -0.05 | defactinib -0.024 | rucaparib 0.035 | [9] -0.034 | encorafenib -0.025 | [10] 0.003

NAGLU (UniProt P54802)
inactive: [1] 0.046 | volasertib -0.059 | [2] -0.03 | epoxomicin -0.165 | [3] 0.003 | [4] 0.027 | [5] -0.035 | rosiglitazone 0.055 | [6] 0.051 | [7] -0.124 | saracatinib -0.061 | sotrastaurin 0.011 | alvocidib 0.012 | Tubastatin A 0.096 | [8] -0.041 | defactinib 0.008 | rucaparib -0.023 | [9] 0.12 | encorafenib -0.064 | [10] -0.009

NAP1L5 (UniProt Q96NT1)
inactive: [1] 0.033 | volasertib 0.056 | [2] 0.005 | epoxomicin 0.109 | [3] -0.011 | [4] 0.034 | [5] -0.027 | rosiglitazone 0.017 | [6] 0.003 | [7] 0.101 | saracatinib 0.066 | sotrastaurin 0.033 | alvocidib 0.043 | Tubastatin A 0.027 | [8] -0.014 | defactinib -0.081 | rucaparib -0.217 | [9] -0.064 | encorafenib 0.004 | [10] 0.012

Two neighbouring entries already listed, quoted:
NAGLU (UniProt P54802)
inactive: [1] 0.046 | volasertib -0.059 | [2] -0.03 | epoxomicin -0.165 | [3] 0.003 | [4] 0.027 | [5] -0.035 | rosiglitazone 0.055 | [6] 0.051 | [7] -0.124 | saracatinib -0.061 | sotrastaurin 0.011 | alvocidib 0.012 | Tubastatin A 0.096 | [8] -0.041 | defactinib 0.008 | rucaparib -0.023 | [9] 0.12 | encorafenib -0.064 | [10] -0.009

NAP1L5 (UniProt Q96NT1)
inactive: [1] 0.033 | volasertib 0.056 | [2] 0.005 | epoxomicin 0.109 | [3] -0.011 | [4] 0.034 | [5] -0.027 | rosiglitazone 0.017 | [6] 0.003 | [7] 0.101 | saracatinib 0.066 | sotrastaurin 0.033 | alvocidib 0.043 | Tubastatin A 0.027 | [8] -0.014 | defactinib -0.081 | rucaparib -0.217 | [9] -0.064 | encorafenib 0.004 | [10] 0.012

Next records follow.

NDUFAF4 (UniProt Q9P032)
inactive: [1] -0.057 | volasertib -0.037 | [2] -0.006 | epoxomicin 0.042 | [3] -0.009 | [4] -0.016 | [5] 0.005 | rosiglitazone 0.008 | [6] -0.07 | [7] -0.092 | saracatinib -0.016 | sotrastaurin 0 | alvocidib -0.047 | Tubastatin A -0.019 | [8] -0.01 | defactinib -0.025 | rucaparib -0.015 | [9] -0.026 | encorafenib 0.003 | [10] 0.014

NARF (UniProt Q9UHQ1)
inactive: [1] -0.081 | volasertib -0.17 | [2] 0.047 | epoxomicin 0.11 | [3] -0.007 | [4] 0.012 | [5] -0.004 | rosiglitazone 0.026 | [6] -0.023 | [7] -0.009 | saracatinib 0.05 | sotrastaurin 0 | alvocidib -0.006 | Tubastatin A -0.016 | [8] 0.024 | defactinib -0.056 | rucaparib -0.036 | [9] -0.031 | encorafenib 0.093 | [10] 0.021

NAGA (UniProt P17050)
inactive: [1] -0.142 | volasertib -0.117 | [2] -0.041 | epoxomicin 0.043 | [3] -0.05 | [4] -0.071 | [5] -0.037 | rosiglitazone 0.014 | [6] -0.059 | [7] -0.232 | saracatinib -0.021 | sotrastaurin 0.02 | alvocidib 0.01 | Tubastatin A -0.036 | [8] -0.062 | defactinib 0.014 | rucaparib -0.004 | [9] -0.051 | encorafenib -0.026 | [10] 0.041

NAPA (UniProt P54920)
inactive: [1] -0.057 | volasertib -0.129 | [2] 0.013 | epoxomicin 0.053 | [3] -0.014 | [4] -0.061 | [5] 0.016 | rosiglitazone -0.001 | [6] -0.067 | [7] 0.007 | saracatinib 0.029 | sotrastaurin -0.04 | alvocidib -0.067 | Tubastatin A 0.003 | [8] 0.027 | defactinib -0.063 | rucaparib -0.068 | [9] -0.032 | encorafenib 0.028 | [10] -0.008

NDUFA2 (UniProt O43678)
inactive: [1] -0.012 | volasertib -0.046 | [2] 0.037 | epoxomicin 0.076 | [3] -0.044 | [4] -0.05 | [5] 0.022 | rosiglitazone 0.033 | [6] -0.02 | [7] 0.001 | saracatinib -0.014 | sotrastaurin 0.005 | alvocidib -0.041 | Tubastatin A -0.006 | [8] 0.006 | defactinib -0.034 | rucaparib 0.012 | [9] 0.09 | encorafenib -0.058 | [10] -0.048

NCR3LG1 (UniProt Q68D85)
inactive: [1] -0.049 | volasertib 0.041 | [2] 0.056 | epoxomicin 0.019 | [3] -0.042 | [4] -0.151 | [5] -0.005 | rosiglitazone 0.01 | [6] 0.017 | [7] 0.133 | saracatinib -0.048 | sotrastaurin -0.042 | alvocidib 0.05 | Tubastatin A 0.111 | [8] -0.007 | defactinib -0.132 | rucaparib 0.154 | [9] -0.043 | encorafenib 0.11 | [10] -0.013

NEBL isoform 2 (UniProt O76041)
inactive: [1] 0.026 | volasertib 0.025 | [2] 0.01 | epoxomicin 0.03 | [3] -0.005 | [4] 0.024 | [5] -0.046 | rosiglitazone -0.033 | [6] -0.033 | [7] -0.078 | saracatinib 0.027 | sotrastaurin 0.09 | alvocidib 0.006 | Tubastatin A -0.004 | [8] -0.005 | defactinib -0.049 | rucaparib -0.045 | [9] -0.039 | encorafenib -0.046 | [10] 0.007

NDUFV3 isoform 2 (UniProt P56181)
inactive: [1] 0.035 | volasertib 0.151 | [2] -0.062 | epoxomicin -0.013 | [3] 0.044 | [4] 0.017 | [5] -0.046 | rosiglitazone 0 | [6] -0.018 | [7] 0.043 | saracatinib 0.009 | sotrastaurin 0.07 | alvocidib 0.018 | Tubastatin A -0.059 | [8] -0.002 | defactinib -0.017 | rucaparib 0.009 | [9] -0.088 | encorafenib -0.066 | [10] 0.059

NDUFAF1 (UniProt Q9Y375)
inactive: [1] 0.02 | volasertib 0.02 | [2] -0.016 | epoxomicin 0.015 | [3] -0.021 | [4] 0.013 | [5] -0.017 | rosiglitazone -0.01 | [6] -0.008 | [7] -0.005 | saracatinib 0.086 | sotrastaurin 0.036 | alvocidib -0.032 | Tubastatin A -0.008 | [8] -0.015 | defactinib -0.02 | rucaparib -0.028 | [9] -0.014 | encorafenib 0.025 | [10] 0.046

NAA15, A0A0B4J1W3
inactive: [1] 0.096 | volasertib 0.044 | [2] -0.048 | epoxomicin -0.039 | [3] 0.014 | [4] -0.099 | [5] -0.02 | rosiglitazone 0.014 | [6] -0.073 | [7] -0.015 | saracatinib 0.063 | sotrastaurin 0.21 | alvocidib -0.036 | Tubastatin A -0.102 | [8] 0.002 | defactinib 0.01 | rucaparib 0.015 | [9] -0.007 | encorafenib 0.023 | [10] 0.083
